These are yes or no findings as the source states them, for the method shown. Some entries that bind do so weakly or less than the wild type.
Target: Phytophthora sojae chitin synthase 1 (Phytophthora sojae) (UniProt G4Z2L3)
Experiment: cryo-EM structure; purified PsCHS at 3 mg/mL in digitonin, incubated with 0.5 mM UDP-GlcNAc and 1 mM Mn2+ for 15 min or 40 min at 25 °C before freezing; UDP/Mn2+-bound state resolved for both samples; both purified

B1: Phytophthora sojae chitin synthase 1 (enzyme)
chain: MSGAPPPSSGFAPRSYGQQPLSHAPRSSMMSVEYDGIPLPPPSIRSCGSQQYVTSYIPTGAAFPPSSVQDMISSMKSYASATDLVRTYSEIPSVEEALSTLDRAAAALNARRYRDALKLYLEGGYAMANVAERQANPKICNLLTSKGFETLNWCARLCDWIEGRIKEKHPRPGVHKVGIPVSNWDEDWVGPFMDEEEARRMWYTPVYCPHPIDFSNLGYRLRCVETGRRPRLMICITMYNEGPQQLKATLKKLANNLAYLKEQMPGDEKSLTGAFAGDDVWQNVLVCIVADGREQVHPKTLDYLEAIGLYDEDLLTINSAGIGAQCHLFEHTLQLSVNGKCLLPIQTVFALKENKASKLDSHHWYFNAFAEQIQPEYTAVMDVGTMLTKSALYHLLFAFERNHQIGGACGQLTVDNPFENLSNWVISAQHFEYKISNILDKSLESCFGFISVLPGAFSAYRYEAIRGAPLDAYFQTLNIELDVLGPFIGNMYLAEDRILSFEVVARKNCNWTMHYVKDAVARTDVPHDLVGLISQRKRWLNGAFFATLFSIWNWGRIYSESKHTFVRKMAFLVFYVYHLLYTAFGFFLPANLYLALFFIVFQGFQQNRLEFIDTSEYSQTVLDCAVYIYNFSYLFGLLMLIIIGLGNNPKHMKLTYYFVGAVFGLMMMLSSLVGAGIFFSTPATVHSIVVSILTVGVYFIASALHGEVHHIFMTFTHYTALIPSFVNIFTIYSFCNLQDLSWGTKGLHDDPLLAASLDETEKGDFKDVIAKRRALEELRREEKERVENRKKNFEAFRTNVLLTWAFSNLIFALFVVYFASSSTYMPVLYIFVASLNTCRLLGSIGHWVYIHTEGLRGRVIDKSECGNGTGRYPQNSYVQLEEHYAALAEDQRTYASGRTNASVRTVNDVSSAA
notes: Phytophthora sojae chitin synthase 1 (PsCHS1), the PsCHS gene in pcDNA3.1; the final models lack residues 1-22, stretches within 40-90, 738-761 and 860-925; also called PsCHS; PsCHS1; source: HEK293F cells, transfected (pcDNA3.1), purified (digitonin solubilisation, Ni-NTA, Superose 6 Increase SEC)
binding: binds

— paper PMC11546553, “Chitin Translocation Is Functionally Coupled with Synthesis in Chitin Synthase” (International Journal of Molecular Sciences, 2024)
